Laboratory results: US11547682B2, “Use of formin agonists in overcoming brain tumor radio- and chemo-resistance by targeting tumor microtubes” (The University of Toledo, priority 2019, dated 2023)
Some of these results come from one statement about several compounds together.

Test system: tumor microtubes (TMs) in Pat9 neurospheres
Test: Tumor microtube (TM) formation and length in neurosphere edge cells (IF, Metamorph)
Format: cell-based, human
Settings: 50 μM, control edge cells ~125 μm
Procedure: FIGS. 6A-6E: Tumor microtube shortening and amoeboid cell morphologies in IMM-treated HGG patient-derived neurospheres. […] Left-most boxes indicate areas of magnification shown. Scale bar (upper panel)=25 μm; (lower panel 100 μm). FIGS. 6B-6C show tumor TM lengths were measured using Metamorph software from cell nuclei to tumor TM ends. TMs measured from N>196 cells across three replicate experiments. TMs were measured in control (FIG. 6B), or drug washout experiments using 50 μM IMM01 or IMM02 where m=maintained drug and r=washout (FIG. 6C). Data are shown as scatter plots in FIGS. 6B-6C, or histograms (FIGS. 6B′, 6C′). […] FIGS. 6D, 6D′ show cellular morphologies measured in neurosphere edge cells and EI were calculated by dividing cell long by short axes, where EI=1 is a rounded cell, and E>1 is an elongated cell. N>196 cells across three replicate experiments. Data are shown as scatter plots (FIG. 6D, 6E), or histograms (FIG. 6D′, FIG. 6E′).
FIG. 11: Tumor TM measurements in HGG patient neurospheres. […] Tumor TMs were measured using Metamorph software by drawing lines (colored lines) along the length of tumor TMs from cell bodies to the end of the tumor TM using brightfield images. […]
Cell protrusions were confirmed by IF to robustly express punctate Connexin-43 (FIG. 6A). […] Tumor TM length was measured in neurosphere edge cells in IMM-treated Pat9 neurospheres. […]

Compound: CC(C)(C)NC(=S)N/N=C/c1ccc(O)cc1O [IMM01, 2-[(2,4-dihydroxyphenyl)methylene]-N-(1,1-dimethylethyl)-hydrazinecarbothioamide]
- tumor TM length: 50-75 μm

Compound: C/C(=N\NC(=S)NC(C)(C)C)c1cc(F)cc(F)c1O [IMM02, N1-(tert-butyl)-2-[1-(3,5-difluoro-2-hydroxyphenyl)ethylidene]hydrazine-1-carbothioamide]
- tumor TM length: 50-75 μm
